We go through 1 molecule from PMC6710443.

Sequences of proteins named here, by UniProt entry; tags and fusion partners are left off.
UniProt Q7TQN4: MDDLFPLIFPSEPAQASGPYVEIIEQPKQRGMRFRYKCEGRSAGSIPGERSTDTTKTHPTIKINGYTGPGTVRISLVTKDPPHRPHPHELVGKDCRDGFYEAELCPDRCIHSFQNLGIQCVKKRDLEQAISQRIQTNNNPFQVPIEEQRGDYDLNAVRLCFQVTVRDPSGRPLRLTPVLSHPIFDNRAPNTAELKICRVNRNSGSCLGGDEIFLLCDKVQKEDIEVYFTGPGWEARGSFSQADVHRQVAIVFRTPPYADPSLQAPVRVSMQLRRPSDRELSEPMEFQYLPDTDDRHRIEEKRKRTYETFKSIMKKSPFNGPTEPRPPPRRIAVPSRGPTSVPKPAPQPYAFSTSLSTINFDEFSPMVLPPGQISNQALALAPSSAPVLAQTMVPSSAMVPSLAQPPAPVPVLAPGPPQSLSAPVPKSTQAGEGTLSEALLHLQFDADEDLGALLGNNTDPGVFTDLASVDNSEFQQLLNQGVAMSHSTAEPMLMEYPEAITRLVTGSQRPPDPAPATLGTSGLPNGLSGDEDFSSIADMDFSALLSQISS

No constants are given. Whether binding was seen depends on the method and setting. Binding seen in cells or lysates may run through a third protein. Some entries that bind do so weakly or less than the wild type. Sequences can lack the tags named with a protein.

The test has as its target Nuclear factor-kappaB p65 (rat (endogenous in primary rat chondrocytes)) (UniProt Q7TQN4). Put plainly: co-IP; 500 ug chondrocyte lysate (IP RIPA with protease inhibitor cocktail) incubated with anti-NF-kappaB p65 antibody and protein A/G PLUS-Agarose beads at 4°C overnight; beads washed three times with lysis buffer; SDS-PAGE.

B1: Histone deacetylase 3 (protein, UniProt Q6P6W3 1-428)
chain: MAKTVAYFYDPDVGNFHYGAGHPMKPHRLALTHSLVLHYGLYKKMIVFKPYQASQHDMCRFHSEDYIDFLQRVSPTNMQGFTKSLNAFNVGDDCPVFPGLFEFCSRYTGASLQGATQLNNKICDIAINWAGGLHHAKKFEASGFCYVNDIVIGILELLKYHPRVLYIDIDIHHGDGVQEAFYLTDRVMTVSFHKYGNYFFPGTGDMYEVGAESGRYYCLNVPLRDGIDDQSYKHLFQPVISQVVDFYQPTCIVLQCGADSLGCDRLGCFNLSIRGHGECVEYVKSFNIPLLVLGGGGYTVRNVARCWTYETSLLVEEAISEELPYSEYFEYFAPDFTLHPDVSTRIENQNSRQYLDQIRQTIFENLKMLNHAPSVQIHDVPADLLTYDRTDEADAEERGPEENYSRPEAPNEFYDGDHDNDKESDVEI
On to B1, for which the binding entry is reported as “binds”.
